In article PMC7000777:
No constants are given. Whether binding was seen depends on the method and setting. In cells and extracts the contact can be indirect. For some assays here: Binding can be weak; no strength is given.

How the values were obtained:
[1] = target: T1, inducible costimulator (ICOS), full-length, wild type (mouse) (UniProt Q9WVS0); experiment: condition: only in Lck-deficient (LCK-knockout) Jurkat cells; co-IP; anti-ICOS immunoprecipitates of ICOS-transduced Lck-deficient (CRISPR LCK-knockout) Jurkat clones; blotted for p85 and ICOS
T1 sequence: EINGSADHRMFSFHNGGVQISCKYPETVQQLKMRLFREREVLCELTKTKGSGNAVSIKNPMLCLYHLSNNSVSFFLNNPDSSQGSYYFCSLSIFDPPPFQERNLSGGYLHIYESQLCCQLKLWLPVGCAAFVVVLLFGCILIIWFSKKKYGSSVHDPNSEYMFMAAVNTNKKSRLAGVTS

[2] = target: T1, inducible costimulator (ICOS), full-length, wild type (mouse); experiment: co-IP; anti-ICOS (C398.4A) and goat anti-hamster secondary added to intact Jurkat cells, on ice (unstimulated) or 37 °C for 1 min (ICOS crosslinking); RIPA lysis; Protein A/G agarose overnight at 4 °C; blotted for p85 and ICOS

binding [1]: no binding
binding [2]: binds
Substance: regulatory subunit p85 of phosphoinositide-3 kinase (PI3K) (human (endogenous in Jurkat))
